These results are taken from patent publication US20180141977A1 (NORWEGIAN UNIVERSITY OF SCIENCE AND TECHNOLOGY NTNU, published 2018).

Protein sequences, listed by entry. Tags and fused reporters are not part of them.
UniProt P0A988: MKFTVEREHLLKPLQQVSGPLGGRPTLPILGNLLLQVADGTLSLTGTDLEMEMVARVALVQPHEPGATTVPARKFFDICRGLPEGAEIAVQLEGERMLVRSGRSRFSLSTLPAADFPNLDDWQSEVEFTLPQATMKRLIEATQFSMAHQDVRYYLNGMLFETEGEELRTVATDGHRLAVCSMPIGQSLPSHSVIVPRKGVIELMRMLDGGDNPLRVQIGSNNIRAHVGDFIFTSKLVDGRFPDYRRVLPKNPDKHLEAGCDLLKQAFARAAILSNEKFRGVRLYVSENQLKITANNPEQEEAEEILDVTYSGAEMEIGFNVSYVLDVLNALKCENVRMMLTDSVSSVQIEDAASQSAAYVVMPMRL

These are yes or no findings as the source states them, for the method shown. Some entries that bind do so weakly or less than the wild type.

B1: … (SEQ ID NO: 1304) (peptide)
peptide: MDRFSLKWKKKRKIRRRRRRRRRRR
B2: … (SEQ ID NO: 1302) (peptide)
peptide: MDRWLSKWKKKRKIRRRRRRRRRRR
B3: … (SEQ ID NO: 1303) (peptide)
peptide: MDRWLVPWKKKRKIRRRRRRRRRRR
B4: … (SEQ ID NO: 1299) (peptide)
peptide: MDRWAVKWKKKRKIRRRRRRRRRRR
B5: ATX-101, … (SEQ ID NO: 1289) (peptide)
peptide: MDRWLVKWKKKRKIRRRRRRRRRRR
B6: … (SEQ ID NO: 1300) (peptide)
peptide: MDRWLTKWKKKRKIRRRRRRRRRRR
B7: … (SEQ ID NO: 1298) (peptide)
peptide: MDRWSVKWKKKRKIRRRRRRRRRRR
B8: … (SEQ ID NO: 1301) (peptide)
peptide: MDRFLSKWKKKRKIRRRRRRRRRRR

This assay deals with T1, β-clamp protein from E. coli (E. coli, UniProt P0A988 1-366, labeled with a fluorescent molecule (site not stated)).
T1 construct: Fluorescently labelled for microscale thermophoresis; also called sliding clamp
Put plainly: microscale thermophoresis (MST). Background: MST reads how a fluorescent partner responds to local heating, with and without ligand.
B1: the binding entry was “binds”.

Consider B2, for which the binding result is “binds”.

For B3, the binding entry is given as “binds”.

B4: the binding entry is “binds”.

On to B5, for which the binding entry is given as “binds”.

For B6, the binding result is given as “binds”.

On to B7, for which the binding entry is given as “binds”.

Take B8: the binding result is reported as “binds”.
